Experimental data published in patent US20070010532A1, “3-Pyridylcarboxamide derivatives as pesticidal agents” (BAYER CROPSCIENCE GMBH, priority 2003, published 2007).
Some entries share one result that the patent states for a list of compounds. Some ranges recur; such a range may be that of the whole group of compounds.

Key:
[1] = tested on: black bean aphids (Aphis fabae); assay: Method A: field bean plants (Vicia faba) and aphids dipped into aqueous solution of the formulated preparation; assay type: in vivo; settings: 300 ppm (content of active compound); plants and aphids dipped 5 seconds; after 3 and 6 days of storage
Method: Germinated field bean seeds (Vicia faba) with seed roots were transferred into brown glass bottles filled with tap water and then populated with about 100 black bean aphids (Aphis fabae). Plants and aphids were then dipped into an aqueous solution of the formulated preparation to be examined for 5 seconds. After they had drained, plants and animals were stored in a climatized chamber (16 hours of light/day, 25° C., 40-60% relative atmospheric humidity). After 3 and 6 days of storage, the effect of the preparation on the aphids was determined. […]

[2] = tested on: black bean aphids (Aphis fabae); assay: Method B: root-systemic action, preparation pipetted into the bottle of field bean (Vicia faba) populated with aphids; assay type: in vivo; settings: 30 ppm (content of active compound); 4 ml pipetted into the bottle; after 3 and 6 days of storage
Method: Germinated field bean seeds (Vicia faba) with seed roots were transferred into brown glass bottles filled with tap water and then populated with about 100 black bean aphids (Aphis fabae). Plants and aphids were then dipped into an aqueous solution of the formulated preparation to be examined for 5 seconds. After they had drained, plants and animals were stored in a climatized chamber (16 hours of light/day, 25° C., 40-60% relative atmospheric humidity). After 3 and 6 days of storage, the effect of the preparation on the aphids was determined. […] Method B:
Germinated field bean seeds (Vicia faba) with seed roots were transferred into brown glass bottles filled with tap water. Four milliliters of an aqueous solution of the formulated preparation to be examined were pipetted into the brown glass bottle. The field bean was then heavily populated with about 100 black bean aphids (Aphis fabae). Plants and aphids were then stored in a climatized chamber (16 hours of light/day, 25° C., 40-60% relative atmospheric humidity). After 3 and 6 days of storage, the root-systemic effect of the preparation on the aphids was determined.

`CSC1=NC(=NC(=O)c2cnccc2C(F)(F)F)NC1(C)C(C)(C)C` (centres unmarked) [Compound E-185] was tested, and the “mortality among the aphids” value [1] was 90-100% and the “mortality among the aphids, by root-systemic action” value [2] was 90-100%.

`CC(C)(C)C1(C)NC(=NC(=O)c2cnccc2C(F)(F)F)NC1=O` (centres unmarked) [Compound B-121] was tested, and the “mortality among the aphids, by root-systemic action” value [2] was 90-100%.

For `CN1C(=O)C(Cc2ccccc2)NC1=NC(=O)c1cnccc1C(F)(F)F` (centres unmarked) [Compound B-246], the “mortality among the aphids” value [1] was 90-100% and the “mortality among the aphids, by root-systemic action” value [2] was 90-100%.

`CC1(C)NC(=NC(=O)c2cnccc2C(F)(F)F)NC1=O` [Compound B-86] was tested, and the “mortality among the aphids” value [1] was 90-100% and the “mortality among the aphids, by root-systemic action” value [2] was 90-100%.

With `CC(=O)OCCSC1=NC(=NC(=O)c2cnccc2C(F)(F)F)NC1(C)C` [Compound E-694] the “mortality among the aphids” value [1] was 90-100% and the “mortality among the aphids, by root-systemic action” value [2] was 90-100%.

For `COC(=O)CN1C(=O)CNC1=NC(=O)c1cnccc1C(F)(F)F` [Compound B-536], the “mortality among the aphids” value [1] was 90-100% and the “mortality among the aphids, by root-systemic action” value [2] was 90-100%.

With `CC(C)C1(C)NC(=NC(=O)c2cnccc2C(F)(F)F)NC1=S` (centres unmarked) [Compound A-101] the “mortality among the aphids” value [1] was 90-100%.

In the case of `C=CCN1C(=O)C(Cc2ccccc2)NC1=NC(=O)c1cnccc1C(F)(F)F` (centres unmarked) [Compound B-464], the “mortality among the aphids” value [1] is reported as 90-100% and the “mortality among the aphids, by root-systemic action” value [2] is reported as 90-100%.

In the case of `CSC1=NC(=NC(=O)c2cnccc2C(F)(F)F)NC12CCCCC2` [Compound E-325], the “mortality among the aphids” value [1] is reported as 90-100% and the “mortality among the aphids, by root-systemic action” value [2] is reported as 90-100%.

With `CCC1(C)NC(=NC(=O)c2cnccc2C(F)(F)F)NC1=S` (centres unmarked) [Compound A-91] the “mortality among the aphids” value [1] was 90-100% and the “mortality among the aphids, by root-systemic action” value [2] was 90-100%.

In the case of `CN1C(=NC(=O)c2cnccc2C(F)(F)F)NC(=O)C1(C)C` [Compound B-87], the “mortality among the aphids” value [1] is reported as 90-100% and the “mortality among the aphids, by root-systemic action” value [2] is reported as 90-100%.

For `CCC1(C)C(SC)=NC(=NC(=O)c2cnccc2C(F)(F)F)N1C` (centres unmarked) [Compound E-138], the “mortality among the aphids” value [1] was 90-100% and the “mortality among the aphids, by root-systemic action” value [2] was 90-100%.

In the case of `C=CCN1C(=O)C(C)(C)NC1=NC(=O)c1cnccc1C(F)(F)F` [Compound B-472], the “mortality among the aphids, by root-systemic action” value [2] is reported as 90-100%.

With `CC1(C)N/C(=N/C(=O)c2cnccc2C(F)(F)F)NC1=S` [Compound A-86, N-[(2Z)-4,4-dimethyl-5-thioxo-2-imidazolinylidene]-4-(trifluoromethyl)nicotinamide] the “mortality among the aphids” value [1] was 90-100% and the “mortality among the aphids, by root-systemic action” value [2] was 90-100%.

For `CSC1=N/C(=N\C(=O)c2cnccc2C(F)(F)F)NC1(C)C` [Compound E-129, N-[(2Z)-5,5-dimethyl-4-methylthio-1,5-dihydro-2-H-imidazol-2-ylidene]-4-(trifluoromethyl)nicotinamide], the “mortality among the aphids” value [1] was 90-100% and the “mortality among the aphids, by root-systemic action” value [2] was 90-100%.

For `C=CCN1C(=O)CNC1=NC(=O)c1cnccc1C(F)(F)F` [Compound B-455], the “mortality among the aphids” value [1] was 90-100% and the “mortality among the aphids, by root-systemic action” value [2] was 90-100%.

With `CC1(C)NC(=NC(=O)c2cnccc2C(F)(F)F)N(C(C)(C)C)C1=O` [Compound B-439] the “mortality among the aphids, by root-systemic action” value [2] was 90-100%.

`CCC1(C)C(SC)=NC(=NC(=O)c2cnccc2C(F)(F)F)N1C(C)=O` (centres unmarked) [Compound E-143] was tested, and the “mortality among the aphids” value [1] was 90-100% and the “mortality among the aphids, by root-systemic action” value [2] was 90-100%.

`CN1C(=O)CNC1=NC(=O)c1cnccc1C(F)(F)F` [Compound B-201] was tested, and the “mortality among the aphids” value [1] was 90-100%.

With `CCC1(C)NC(=NC(=O)c2cnccc2C(F)(F)F)N=C1SC` (centres unmarked) [Compound E-137] the “mortality among the aphids” value [1] was 90-100% and the “mortality among the aphids, by root-systemic action” value [2] was 90-100%.

For `O=C(N=C1NC(=S)C2(CCCCC2)N1)c1cnccc1C(F)(F)F` [Compound A-196], the “mortality among the aphids” value [1] was 90-100% and the “mortality among the aphids, by root-systemic action” value [2] was 90-100%.

`C=CCN1C(=O)C(C)NC1=NC(=O)c1cnccc1C(F)(F)F` (centres unmarked) [Compound B-456] was tested, and the “mortality among the aphids” value [1] was 90-100%.

With `CN1C(=O)C(C)(C)NC1=NC(=O)c1cnccc1C(F)(F)F` [Compound B-286] the “mortality among the aphids” value [1] was 90-100%.

For `CSC1=NC(=NC(=O)c2cnccc2C(F)(F)F)N(C)C1(C)C` [Compound E-130], the “mortality among the aphids” value [1] was 90-100% and the “mortality among the aphids, by root-systemic action” value [2] was 90-100%.
